# Experimental data published in PubChem BioAssay AID1487 (National Center for Advancing Translational Sciences (NCATS), 2009).
# “And” between values parts separate entries of the source, which are not always exact repeats. Identical values can stand only once. Some of the results follow. Shown are side measurements of this screen, not its main read-out; they come without a call. The list favours compounds with an active or inconclusive main result. Potencies come from curve fits of mixed quality, noted in brackets.
# Test: qHTS Assay for Modulators of Lamin A Splicing
# Conditions: HeLa LMNA splicing GFP/RFP minigene ratio, 48 h
# How it was run: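 S3 HeLa stable clones carrying a lamin A-EGFP splicing minigene plus DsRed2 were seeded at 600 cells/well in Opti-MEM with 2% FBS, pin-dosed and incubated 48 h at 37°C. Acumen cytometry (488 nm) gave the GFP/RFP total-intensity ratio.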
# [1] = measured here: RFP viability control channel
# [2] = measured here: GFP splicing reporter channel
Structure (SMILES),AC50 [1],AC50 [2]
CCN(CC)c1ccc(C(=O)OCC(=O)Nc2sccc2C#N)cc1,"25.1 µM [rising, partial curve, poor fit]",
O=C(Nc1nc(-c2ccccc2)ns1)c1cccs1,"22.4 µM [rising, single point]",
C=C(C)C1CC=C(C)CC1 (centres undefined),"0.794 µM [falling, partial curve, poor fit]","0.0562 µM [falling, partial curve]"
CCCCn1c(SCC2CCCCO2)nc2cc(S(N)(=O)=O)ccc21 (centres undefined),"35.5 µM [rising, single point]",
COc1ccc2[nH]cc(CCNc3ncnc4ccc(-c5cccc(C#N)c5)cc34)c2c1,"15.8 µM [falling, single point]","7.08 µM [falling, partial curve]"
Cc1ccc(Cl)cc1N1CCN(C(=O)C2CCCN(S(=O)(=O)c3cnc[nH]3)C2)CC1 (centres undefined),"12.6 µM [rising, single point]",
CN(C)CCOC(c1ccccc1)c1ccccc1 (tested in a mixture with another compound),"0.001 µM [falling, full curve]","1.12 nM [falling, full curve] and 2.24 µM [rising, partial curve]"
O=C(/C=C/c1ccc([N+](=O)[O-])cc1)Nc1ncc([N+](=O)[O-])s1,"3.98 µM [rising, full curve]",
COc1ccc(OC)c(CNC(=O)c2cnc3c(C)cccn3c2=O)c1,,"11.2 µM [rising, single point]"
CCN(CC)S(=O)(=O)c1cccc(-c2nnc(SCc3nc4ccccc4s3)o2)c1,"15.8 µM [rising, single point]","11.2 µM [rising, partial curve]"
Cc1ccc(-c2nnc(N3CCN(C(=O)Cn4c(=O)n(C)c5ccccc54)CC3)c3ccccc23)cc1,"25.1 µM [rising, single point]",
CCCCN(CCCNC(=O)CN1N=C(c2ccc(C)cc2)CCC1=O)c1ccccc1,,"12.6 µM [falling, partial curve]"
Cc1csc(NC(=S)Nc2cccc(Cl)c2)n1,"12.6 µM [rising, partial curve, poor fit]",
Cc1ccc(NC2=C/C(=N/S(=O)(=O)c3cccs3)c3ccccc3C2=O)cc1,"3.16 µM [falling, full curve]","3.98 µM [falling, full curve]"
O=C(CCCc1cccs1)Nc1nc(-c2ccc(F)cc2)cs1,"35.5 µM [rising, single point]",
Clc1ccc(CSc2snnc2-c2ccccc2)cc1,"35.5 µM [rising, single point]",
O=C(Nc1ccccc1F)c1ccc(S(=O)(=O)NCC2CCCO2)cc1 (centres undefined),"31.6 µM [rising, single point]","35.5 µM [rising, single point]"
Oc1ccc(/C(Cc2ccccn2)=N\Nc2ccccc2)c(O)c1,"31.6 µM [rising, single point]",

Structure (SMILES),AC50 [1],AC50 [2]
O=S1(=O)C=C(Oc2ccc3ccccc3c2)c2ccccc21,,"0.2 µM [falling, single point]"
Cn1c(=O)n(C)c2cc(/C=C(/C#N)C(=O)NCc3ccco3)ccc21,"14.1 µM [rising, single point]",
COc1cc(C(=O)O/N=C(\N)Cc2ccc([N+](=O)[O-])cc2)cc(OC)c1OC,,"11.2 µM [rising, partial curve]"
Cc1cc(=O)oc2cc(OC(=O)CCN3C(=O)c4ccccc4C3=O)ccc12,"0.00501 µM [falling, full curve, poor fit]",
Cc1ccc(S(=O)(=O)N(CC(=O)N=Nc2c(O)[nH]c3ccccc23)c2ccc(C)c(C)c2)cc1,"14.1 µM [rising, partial curve]","7.08 µM [rising, full curve]"
Cc1cc(=O)n2[nH]c(N)c(N=Nc3ccccc3F)c2n1,"10 µM [rising, partial curve]",
O=S(=O)(Cc1ccccc1)c1cnc2ccccc2n1,,"35.5 µM [falling, single point]"
CC(C)(C)c1ccc(C(=O)NC(=S)NCc2cccnc2)cc1,"15.8 µM [rising, partial curve]","12.6 µM [rising, single point]"
Clc1ccc([C@H](Cn2ccnc2)OCc2c(Cl)cccc2Cl)c(Cl)c1,"12.6 µM [falling, single point]","0.251 µM [falling, partial curve, poor fit]"
Cc1cc(N2CCN(S(=O)(=O)c3ccc(Cl)cc3)CC2)c2ccccc2n1,"11.2 µM [rising, single point]","7.08 µM [rising, partial curve, poor fit]"
COC(=O)C/C=C/[C@@H](C)[C@@H](/C=N/OC[C@@H](C)[C@H](OCc1ccccc1)C(C)C)NS(=O)(=O)c1ccc(C)cc1,"22.4 µM [rising, partial curve, poor fit]","10 µM [rising, partial curve]"
Cn1nc([N+](=O)[O-])nc1Oc1ccccc1N,"12.6 µM [falling, partial curve]",
CSc1ccc(/C=N/NC(=O)c2ccccc2Cl)cc1,"11.2 µM [rising, single point]",
CCOC(=O)c1ccc(NC(=O)Cn2nnc(-c3ccccc3F)n2)cc1,,"35.5 µM [rising, single point]"
COc1ccc(Nc2nc(-c3cccs3)nc3ccccc23)c(OC)c1,"25.1 µM [rising, partial curve]","25.1 µM [rising, single point]"
Fc1ccc(Nc2nc(-c3ccncc3)cs2)cc1,,"25.1 µM [falling, single point]"
COc1cc(OC)c(-c2nn3c(-c4ccco4)nnc3s2)cc1OC,"11.2 µM [rising, partial curve]",
CCN(CCCc1ccccc1)CCCc1ccccc1,"28.2 µM [falling, partial curve, poor fit]","14.1 µM [falling, single point] and 447 nM [falling, full curve, poor fit]"
